Test results published in publication doi:10.1101/2021.02.10.429309.
Results are given in words; binding and its absence hold for the method and conditions named. Binding seen in cells or lysates may run through a third protein. A yes stands for co-enrichment or nearness to the bait. Other partners may have been found.

Biological target: 3×HA-tagged KRAS (KRAS-4B) (UniProt P01116)
Assay: affinity purification with mass spectrometry

binding: binds
B1: Ras GTPase-activating protein-binding protein 2 (protein, UniProt Q9UN86 1-482)
chain: MVMEKPSPLLVGREFVRQYYTLLNKAPEYLHRFYGRNSSYVHGGVDASGKPQEAVYGQNDIHHKVLSLNFSECHTKIRHVDAHATLSDGVVVQVMGLLSNSGQPERKFMQTFVLAPEGSVPNKFYVHNDMFRYEDEVFGDSEPELDEESEDEVEEEQEERQPSPEPVQENANSGYYEAHPVTNGIEEPLEESSHEPEPEPESETKTEELKPQVEEKNLEELEEKSTTPPPAEPVSLPQEPPKAFSWASVTSKNLPPSGTVSSSGIPPHVKAPVSQPRVEAKPEVQSQPPRVREQRPRERPGFPPRGPRPGRGDMEQNDSDNRRIIRYPDSHQLFVGNLPHDIDENELKEFFMSFGNVVELRINTKGVGGKLPNFGFVVFDDSEPVQRILIAKPIMFRGEVRLNVEEKKTRAARERETRGGGDDRRDIRRNDRGPGGPRGIVGGGMMRDRDGRGPPPRGGMAQKLGSGRGTGQMEGRFTGQRR
